In publication PMC11364024:
Results are given in words; binding and its absence hold for the method and conditions named.

Biological target: T1, human small EDRK-rich factor 1a (SERF1a) (human)
T1 chain: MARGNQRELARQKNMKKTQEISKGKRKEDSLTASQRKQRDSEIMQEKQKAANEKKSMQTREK
Assay: SEC-SWAXS (size-exclusion column with small- and wide-angle X-ray scattering, UV-Vis absorption and dRI); single-component samples (SERF1a 4.1 mg/ml; Htt-1 10 mg/ml injected, diluted ca. 2-4 fold on the column); sodium phosphate buffer pH 7.4; 283 K; aggregation number from zero-angle intensity I0 and the concentration from optical data; both purified
Conditions: remark: other sources report otherwise

B1: human small EDRK-rich factor 1a (SERF1a) (protein)
chain: T1 chain
  binding: no binding (tested: 4.1 mg ml^-1 injected)
